{"source": "patent US10124019B2", "about": "“Compositions and their use for removing cholesterol” (Cornell University, priority 2009, dated 2018)", "test_system": "NPC1 human fibroblast GM18453; NPC2 human fibroblast GM18445", "assay": "HDAC inhibitor effect on LSO cholesterol, 48-hour treatment", "assay_type": "cell-based", "protocol": "Cells were treated in complete medium for two days (48 hours). The dashed horizontal line is 3SD below the mean for untreated cells. (A) results for NPC1 human fibroblast GM18453, (B) results for NPC2 human fibroblast GM18445.\nEach data point in the plot is representative of a total of 32 images from two independent experiments. The standard deviation (SD) for DMSO is 0.07, error bar=SE. The dotted line represents the DMSO control.", "note": "At least one compound was matched to its structure with a doubt left.", "data": [{"smiles": "Cc1[nH]c2ccccc2c1CCNCc1ccc(/C=C/C(=O)NO)cc1", "note": "[LBH-589, Panobinostat]", "values": [{"measurement": "reduction of cholesterol in the LSOs", "setting": "4 nM", "value": "effective"}, {"measurement": "reduction of cholesterol in the LSOs", "setting": "37 nM", "value": "significantly effective"}]}]}
